Measured values: PubChem BioAssay AID445 (National Center for Advancing Translational Sciences (NCATS), 2006)
The other results are listed elsewhere or left out. Further columns of the screen follow, without active or inactive calls. Compounds called inactive in the main read-out are mostly missing here. The note in brackets gives the kind of curve behind each potency; many fits are weak.

Test: IkB Signaling
Settings: ABC-DLBCL IkBa-CBG/CBR dual luciferase ratio (green luciferase fused to IkBa over red control in OCI-Ly3 lymphoma cells), 4 h; measured here: control luc red channel unless noted
Procedure, shortened: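 Luminescence ratio of IκBα-fused green versus native red beetle luciferase in OCI-Ly3 cells, 4 h post-doxycycline with compound; red signal alone, scaled from basal (0%) to zero light (-100%), flagged nonspecific or cytotoxic effects.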
In the case of `Cc1cccc(NC(=O)c2sc(-n3nc(C)c(CCC(C)C)c3C)nc2C)c1`, the AC50 is reported as 10 µM [falling, partial curve].
For `N#Cc1ccccc1OCC(=O)N1CCN(c2ccccc2F)CC1`, the AC50 was 25.1 µM [falling, partial curve].
With `O=C1CSC(=S)N1Cc1cccnc1` the AC50 was 7.94 µM [falling, full curve].
For `CCCCn1c(SCC(=O)N2CCN(c3ccccc3)CC2)nc2ccsc2c1=O`, the AC50 was 5.01 µM [falling, partial curve].
With `COc1ccc(-c2cc(C(F)(F)F)n3nc(C(=O)N4CCCCC4)cc3n2)cc1` the AC50 was 1.58 µM [rising, partial curve].
For `CCC1CN(C(=O)N2CCC(C(=O)N3CCN(c4cc(C)ccc4C)CC3)CC2)c2ccccc2O1` (stereo not drawn), the AC50 was 0.01 µM [falling, full curve, poor fit].
For `Cc1ccc(C(=O)NC2(C(F)(F)F)N=C(c3ccccc3)N(C3CCCCC3)C2=O)cc1` (stereo not drawn), the AC50 was 15.8 µM [falling, single point].
With `Cc1cccc(C(=O)N2CCc3cc(CNS(=O)(=O)c4cccs4)ccc32)c1` the AC50 was 39.8 µM [falling, single point].
For `CCCCCn1c(=O)c2c(nc3n2CCN3c2ccc(Br)cc2)n(C)c1=O`, the AC50 was 2 µM [falling, full curve].
For `c1ccc(OCCSc2nnc3sc4ccccc4n23)cc1`, the AC50 was 5.01 µM [falling, partial curve].
For `O=C(c1ccco1)N1CCCC(c2nc(-c3ccc(S(=O)(=O)NCc4ccccc4)cc3)no2)C1` (stereo not drawn), the AC50 was 6.31 µM [falling, partial curve].
With `O=C(CSc1nc2c(cnn2-c2ccc(F)cc2)c(=O)[nH]1)Nc1ccccc1C(F)(F)F` the AC50 was 0.251 µM [falling, full curve].
In the case of `Cn1c(=O)cc(OCCCC(=O)NCc2ccc3c(c2)OCO3)c2ccccc21`, the AC50 is reported as 39.8 µM [rising, single point] [measured here: IkB-luc green channel].
With `COc1cccc(CNC(=O)c2cc3ccc4cccnc4c3[nH]2)c1` the AC50 was 7.94 µM [falling, partial curve].
For `COc1ccccc1N1CCN(C(=O)c2cc3c(=O)oc4ccccc4c3s2)CC1`, the AC50 was 39.8 µM [falling, single point].
For `O=C(O)c1ccc(C2Nc3ccccc3-c3nnc(SCc4ccc(Cl)cc4)nc3O2)cc1` (stereo not drawn), the AC50 was 20 µM [falling, single point].
For `COc1cc(OC)c(NC(=O)N2CC=C(c3c[nH]c4ccccc34)CC2)cc1Cl`, the AC50 was 5.01 µM [falling, partial curve].
In the case of `COc1cccc(C(=O)Nc2ccc(C(=O)OCc3cc(=O)n4nc(C5CC5)sc4n3)cc2)c1`, the AC50 is reported as 2.51 µM [rising, full curve, poor fit].
For `COc1ccccc1OCc1nc(-c2cccc(C)c2)no1`, the AC50 was 12.6 µM [falling, partial curve].
With `CC1CCN(C(=O)C(C)Sc2nc(-c3ccccc3)cc(C(F)(F)F)n2)CC1` (stereo not drawn) the AC50 was 15.8 µM [falling, partial curve].
With `O=C(Cn1c(=O)n2nc(-c3cccc(F)c3)nc2c2ccccc21)N1CCN(c2ccccc2F)CC1` the AC50 was 0.02 µM [rising, full curve, poor fit].
In the case of `CC(Sc1nc2c([nH]c3ccccc32)c(=O)n1-c1ccccc1)c1ccccc1` (stereo not drawn), the AC50 is reported as 25.1 µM [falling, partial curve, poor fit].
With `CCOC(=O)c1cc2cc(-c3c(C(=O)OCC)oc4cc(O)cc(O)c4c3=O)ccc2o1` the AC50 was 12.6 µM [falling, partial curve].
With `CCOC(=O)C1CCN(C(=O)c2ccc3c(c2)N=C(CC)c2cc(C)ccc2S3)CC1` the AC50 was 25.1 µM [falling, partial curve].
In the case of `Cc1ccc(-c2nnc(Nc3ccccc3)o2)cc1`, the AC50 is reported as 0.631 µM [falling, full curve].
In the case of `Cc1ccc(-c2cc(C(=O)NC3=NCCS3)c3cc(Br)ccc3n2)o1`, the AC50 is reported as 15.8 µM [falling, partial curve].
With `CN1CCN(C(CNC(=O)c2c(F)cccc2F)c2ccc3c(c2)OCO3)CC1` (stereo not drawn) the AC50 was 1.26 µM [rising, partial curve].
In the case of `O=c1c2ccccc2n(Cc2cccc(Cl)c2)c(=O)n1Cc1ccccc1`, the AC50 is reported as 3.16 µM [falling, full curve, poor fit].
In the case of `COCCCNc1nc(NCc2ccc(C)cc2)c2cnn(C)c2n1`, the AC50 is reported as 20 µM [falling, single point].
For `COc1cccc2c1cc1c(=O)n(CC(=O)N3CCC(C)CC3)nc(C)n12`, the AC50 was 15.8 µM [falling, partial curve].
For `CCOc1ccc2[nH]c(=O)c(CN(Cc3nnnn3CCc3ccccc3)CC3CCCO3)cc2c1` (stereo not drawn), the AC50 was 31.6 µM [falling, single point].
For `O=c1oc2ccccc2cc1-c1nc(-c2cccs2)no1`, the AC50 was 0.126 µM [falling, full curve].
In the case of `CCC(=O)Nc1sc2c(c1C(=O)Nc1ccc(Br)cc1)CCCCC2`, the AC50 is reported as 2.51 µM [falling, full curve, poor fit].
With `COc1ccccc1-c1nc(SCC(=O)c2ccc(Cl)cc2)n[nH]1` the AC50 was 10 µM [falling, partial curve].
With `Cc1cc(C)n(-c2nc3ccccc3nc2Nc2ccc(CC(=O)O)cc2)n1` the AC50 was 1.26 µM [falling, partial curve].
In the case of `O=C(CN1CCN(CC(=O)c2ccc(F)cc2)CC1)Nc1ccccc1Cl`, the AC50 is reported as 5.01 µM [falling, partial curve].
With `COc1ccc(CCNC(=O)c2ccc(Cn3c(=O)[nH]c4cc(OC)c(OC)cc4c3=O)cc2)cc1OC` the AC50 was 6.31 µM [falling, partial curve].
With `NC(=O)c1ccc(-n2nnnc2SCc2ccc(F)cc2)cc1` the AC50 was 12.6 µM [falling, partial curve].
For `O=S(=O)(c1ccc2c(c1)nc(COc1ccc(Cl)cc1)n2CC1CCCO1)N1CCOCC1` (stereo not drawn), the AC50 was 25.1 µM [falling, partial curve].
In the case of `Cc1cc2n(n1)CCC(=O)N2Cc1ccc(C(=O)Nc2cccc(C(F)(F)F)c2)cc1`, the AC50 is reported as 25.1 µM [falling, partial curve, poor fit].
For `CCOc1ccccc1-n1nnnc1SCC(=O)NC(=O)NCc1ccco1`, the AC50 was 31.6 µM [falling, single point].
In the case of `CCOC(=O)c1ccc2nc(NC(=O)c3cccs3)sc2c1`, the AC50 is reported as 15.8 µM [falling, partial curve].
For `Cc1ccc(Nc2c(-c3ccc(C)cc3)nc3c(C)cccn23)cc1`, the AC50 was 25.1 µM [falling, single point].
In the case of `O=C(NCCc1ccc(Cl)cc1)C(=O)NCC(c1cccs1)S(=O)(=O)c1ccccc1` (stereo not drawn), the AC50 is reported as 3.16 µM [falling, partial curve].
For `N#Cc1cccc(NC(=O)COc2ccc(-n3ccnc3)cc2)c1`, the AC50 was 31.6 µM [falling, partial curve].
In the case of `O=S(=O)(c1ccccc1)N1CCN(CC(O)COc2ccc3c(c2)CCC3)CC1` (stereo not drawn), the AC50 is reported as 15.8 µM [falling, partial curve].
For `CNC(=O)c1c(NC(=O)Cc2coc3ccc(OC)cc23)sc2c1CCCC2`, the AC50 was 15.8 µM [falling, partial curve].
In the case of `CC(C)Cc1cc(C(=O)Nc2ccc(F)cc2F)no1`, the AC50 is reported as 5.01 µM [falling, partial curve].
In the case of `Cc1ccc2oc(=O)c3cc(C(=O)NCCc4ccc(Cl)cc4)sc3c2c1`, the AC50 is reported as 5.01 µM [rising, partial curve].
For `CCS(=O)(=O)N1CCc2cc(C(=O)NCc3ccccc3Cl)ccc21`, the AC50 was 0.631 µM [falling, full curve].
With `CCCCc1nn2c(=O)cc(COC(=O)c3ccccc3C)nc2s1` the AC50 was 20 µM [falling, single point].
In the case of `COc1ccc(NC(=O)C(C(C)C)N2Cc3ccccc3C2=O)cc1` (stereo not drawn), the AC50 is reported as 10 µM [falling, partial curve].
In the case of `CCOc1ccccc1NS(=O)(=O)c1cc(-c2cnc(C3CC3)o2)ccc1C`, the AC50 is reported as 0.00631 µM [rising, full curve, poor fit].
With `Cc1ccc(-n2nc3c(=O)n(C(C)C(=O)NCc4ccccc4C)nc(C)c3c2C)cc1` (stereo not drawn) the AC50 was 6.31 µM [falling, partial curve].
For `COc1ccccc1NC(=O)c1sc2nc3n(c(=O)c2c1C)N=C(c1cccc(Br)c1)CS3`, the AC50 was 0.251 µM [falling, full curve, poor fit].
With `COc1ccc(OC)c(/C=C(\C#N)c2nc(-c3ccc(F)cc3)cs2)c1` the AC50 was 31.6 µM [falling, single point].
In the case of `Nc1c(-c2nc(-c3ccc4c(c3)OCO4)cs2)c2ccccn2c1C(=O)c1ccc(Cl)cc1`, the AC50 is reported as 3.16 µM [falling, partial curve].
For `CCOc1ccc(NC(=O)Cc2c[nH]c3ccccc23)cc1`, the AC50 was 12.6 µM [falling, single point].
In the case of `Cc1ccc(SCc2nc(-c3ccc(C(=O)NCC(C)c4ccccc4)cc3)oc2C)cc1` (stereo not drawn), the AC50 is reported as 7.94 µM [falling, partial curve].
With `CCc1ccc(S(=O)(=O)c2nnn3c2nc(NCc2ccccc2)c2cc(Cl)ccc23)cc1` the AC50 was 10 µM [falling, partial curve].
In the case of `O=C(Nc1ccc(Cl)cc1)c1cc(S(=O)(=O)NC2CCCCCC2)ccc1F`, the AC50 is reported as 12.6 µM [falling, partial curve].
In the case of `CCCNC(=O)C(Cc1ccccc1)NS(=O)(=O)c1ccc2c(c1)c(=O)n(C)c(=O)n2C` (stereo not drawn), the AC50 is reported as 0.0126 µM [falling, full curve, poor fit].
In the case of `CCOc1ccc(C(=O)Nc2ccc3c(c2)OCCO3)cc1Br`, the AC50 is reported as 20 µM [falling, partial curve].
